Reference: PMC12582974
Results are given in words; binding and its absence hold for the method and conditions named. Some binding calls cover weakened binding; strength is not graded here. Sequences can lack the tags named with a protein.

Protein sequences, listed by entry. Tags and fused reporters are not part of them.
UniProt O43156: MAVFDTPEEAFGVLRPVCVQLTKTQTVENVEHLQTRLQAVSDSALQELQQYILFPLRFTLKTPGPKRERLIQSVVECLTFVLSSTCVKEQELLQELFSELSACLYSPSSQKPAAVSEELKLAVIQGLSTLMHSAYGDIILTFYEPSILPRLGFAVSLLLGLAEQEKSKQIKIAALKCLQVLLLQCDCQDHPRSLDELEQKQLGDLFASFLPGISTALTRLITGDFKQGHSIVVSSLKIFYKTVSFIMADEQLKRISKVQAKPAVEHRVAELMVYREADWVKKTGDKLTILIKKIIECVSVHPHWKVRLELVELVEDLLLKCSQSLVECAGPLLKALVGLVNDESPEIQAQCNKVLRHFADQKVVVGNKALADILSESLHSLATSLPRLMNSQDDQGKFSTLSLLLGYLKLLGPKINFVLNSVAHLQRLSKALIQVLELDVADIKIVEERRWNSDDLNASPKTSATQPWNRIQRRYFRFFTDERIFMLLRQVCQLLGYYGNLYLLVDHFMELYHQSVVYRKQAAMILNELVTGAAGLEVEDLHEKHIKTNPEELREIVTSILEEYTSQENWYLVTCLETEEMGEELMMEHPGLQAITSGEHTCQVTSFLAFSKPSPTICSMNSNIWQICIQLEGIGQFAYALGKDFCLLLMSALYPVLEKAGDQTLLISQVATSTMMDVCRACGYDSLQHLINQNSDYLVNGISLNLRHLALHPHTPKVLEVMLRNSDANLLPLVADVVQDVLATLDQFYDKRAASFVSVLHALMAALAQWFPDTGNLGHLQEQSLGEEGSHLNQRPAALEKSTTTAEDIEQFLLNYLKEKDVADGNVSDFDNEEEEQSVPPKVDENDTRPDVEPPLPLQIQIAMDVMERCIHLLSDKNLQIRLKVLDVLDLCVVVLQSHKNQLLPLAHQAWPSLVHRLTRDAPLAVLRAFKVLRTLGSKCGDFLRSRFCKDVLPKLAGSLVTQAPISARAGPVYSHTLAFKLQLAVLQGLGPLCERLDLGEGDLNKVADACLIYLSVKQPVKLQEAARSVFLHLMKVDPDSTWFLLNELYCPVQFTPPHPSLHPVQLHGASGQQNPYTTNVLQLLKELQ

Biological target: TwinStrep-3xHA-3C-TTI1 (human) (UniProt O43156)
Assay: co-purification on affinity resin after co-expression; TwinStrep-3xHA-TTI1 and untagged TTI2 co-expressed in Sf9; StrepTactinXT resin in TTT buffer (100 mM Tris pH 8, 300 mM NaCl), elution with 50 mM biotin

B1: untagged TTI2 (co-expressed with TTI1 in insect cells) (protein, UniProt Q6NXR4 1-508)
chain: MELDSALEAPSQEDSNLSEELSHSAFGQAFSKILHCLARPEARRGNVKDAVLKDLGDLIEATEFDRLFEGTGARLRGMPETLGQVAKALEKYAAPSKEEEGGGDGHSEAAEKAAQVGLLFLKLLGKVETAKNSLVGPAWQTGLHHLAGPVYIFAITHSLEQPWTTPRSREVAREVLTSLLQVTECGSVAGFLHGENEDEKGRLSVILGLLKPDLYKESWKNNPAIKHVFSWTLQQVTRPWLSQHLERVLPASLVISDDYQTENKILGVHCLHHIVLNVPAADLLQYNRAQVLYHAISNHLYTPEHHLIQAVLLCLLDLFPILEKTLHWKGDGARPTTHCDEVLRLILTHMEPEHRLLLRRTYARNLPAFVNRLGILTVRHLKRLERVIIGYLEVYDGPEEEARLKILETLKLLMQHTWPRVSCRLVVLLKALLKLICDVARDPNLTPESVKSALLQEATDCLILLDRCSQGRVKGLLAKIPQSCEDRKVVNYIRKVQQVSEGAPYNGT
  binding: binds
